Among the data in patent US5700799A, “Oxazolidinone antimicrobials containing substituted diazine moieties” (Pharmacia & Upjohn Company, priority 1996, dated 1997) are ED50 values, retold here.

This test has as its system S. pyogenes UC 152. As to the kind of experiment: Murine Assay procedure: in vivo antimicrobial activity, survival of infected mice (S. pyogenes UC 152). Further details: species or system S. pyogenes (infected female mice). To be noted: Streptococcus pyogenes, UC152, sc, 144 h, control antibiotic, subcutaneous. As to the method: Antimicrobial activity was tested in vivo using the Murine Assay procedure. Groups of female mice (six mice of 18-20 grams each) were injected intraperitoneally with bacteria which were thawed just prior to use and suspended in brain heart infusion with 4% brewers yeast (Staphylococcus aureus) or brain heart infusion (Streptococcus species). Antibiotic treatment at six dose levels per drug was administered one hour and five hours after affection by either oral intubation or subcutaneous routes. Survival was observed daily for six days. ED50 values based on mortality ratios were calculated using probit analysis. The subject compounds were compared against well-known antimicrobial as controls.

As a reminder, the ED50 is the dose that gives a 50% effect, or the effect in half of the subjects. A lower ED50 goes with an effect at a small dose.

Regarding `CCC[C@@H]1C[C@@H](C(=O)N[C@@H]([C@H]2O[C@H](SC)[C@H](O)[C@@H](O)[C@H]2O)[C@H](C)Cl)N(C)C1` [Clindamycin, reference compound], the ED50 is 2.6 mg/kg.
